Measurements reported in PubChem BioAssay AID588590 (National Center for Advancing Translational Sciences (NCATS), 2011).
Out of some 390,000 compounds screened, about 4,000 (1%) were called active. The inconclusive results got no clear call from the source; some entries with a clear call stand among them for comparison. The call rests on the fitted dose curve; in most records, active means well fitted inhibition curve with a large enough effect; inconclusive means small, poorly fitted or top-dose-only effect, or another doubt; inactive means no such curve, though single readings can be large or run the other way. Potencies of inconclusive entries are doubtful fits and often do not repeat.

Amino acid sequences for entries named in this document (tags omitted). A change or cut given only in a name is not applied to a line headed by its entry.
UniProt Q9UNA4: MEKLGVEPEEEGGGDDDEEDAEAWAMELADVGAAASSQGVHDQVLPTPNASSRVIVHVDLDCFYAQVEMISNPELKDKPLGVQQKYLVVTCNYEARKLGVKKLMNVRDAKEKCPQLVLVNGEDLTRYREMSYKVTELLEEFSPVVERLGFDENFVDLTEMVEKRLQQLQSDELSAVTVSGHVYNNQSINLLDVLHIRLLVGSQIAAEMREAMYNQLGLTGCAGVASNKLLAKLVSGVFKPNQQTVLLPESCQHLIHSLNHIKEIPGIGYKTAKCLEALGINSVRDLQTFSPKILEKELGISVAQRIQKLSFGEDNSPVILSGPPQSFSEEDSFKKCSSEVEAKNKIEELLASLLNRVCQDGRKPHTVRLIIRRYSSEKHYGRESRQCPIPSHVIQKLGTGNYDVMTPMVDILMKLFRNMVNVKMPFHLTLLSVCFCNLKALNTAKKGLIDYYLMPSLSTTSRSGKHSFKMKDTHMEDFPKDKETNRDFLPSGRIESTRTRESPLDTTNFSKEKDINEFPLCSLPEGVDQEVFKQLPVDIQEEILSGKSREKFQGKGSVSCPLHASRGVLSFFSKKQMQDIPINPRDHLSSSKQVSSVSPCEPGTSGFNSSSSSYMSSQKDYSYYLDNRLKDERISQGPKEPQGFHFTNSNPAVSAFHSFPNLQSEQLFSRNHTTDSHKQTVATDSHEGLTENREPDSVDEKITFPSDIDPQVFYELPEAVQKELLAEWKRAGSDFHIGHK

Each molecule was assayed against DNA polymerase iota (Homo sapiens) (UniProt Q9UNA4) (assay: qHTS for Inhibitors of Polymerase Iota). Details: Pol iota fluorescent replication assay, 10 min; series mostly up to 115 µM.
Summary of the method: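 Pol iota at 10 nM preincubated 15 min with compounds at room temperature; reaction started with fluorescent substrate, 50 nM final. Fluorescence read kinetically at 0 and 10 min; buffer-only wells as negative control.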
Potency means the concentration at half of the fitted maximal effect.

Row | Structure (SMILES) | Potency
1 | COc1ccccc1NS(=O)(=O)c1ccc(C(=O)OCC(=O)NCc2ccco2)cc1 | inconclusive: 12.6 µM [inhibitor, full curve]
2 | CCN1CCN(c2nc(NCCO)c3ccccc3n2)CC1 | inconclusive: 3.98 µM [inhibitor, full curve]
3 | O=S1(=O)C2CC3C=CC2(O3)C(O)C(Cc2ccccc2)N1Cc1cccc(C(F)(F)F)c1 (configuration not stated) | inactive
4 | COc1cc(NS(=O)(=O)c2ccc(N/C=C\C(=O)c3ccc(C)cc3)cc2)nc(OC)n1 | inconclusive: 22.4 µM [inhibitor, partial curve, poor fit]
5 | CC(=O)Nc1ccc(C(=O)CSc2nc3ccccc3n2CC(=O)N2CCCC2)cc1 | inconclusive: 22.4 µM [inhibitor, single point]
6 | CCOC(=O)c1c(S(=O)(=O)N2CCCC(C(=O)N3CCN(c4cccc(C)c4C)CC3)C2)c(C)n(C)c1C (configuration not stated) | inactive
7 | COc1cc(/C=C(\C#N)C(=O)N2CCOCC2)cc(Br)c1O | inactive
8 | O=c1c2ccccc2nc2ccc(NCc3ccco3)nn12 | inconclusive: 22.4 µM [inhibitor, full curve]
9 | CNc1ccc(Br)cc(C(=O)/C=C/c2ccc3c(c2)OCO3)c1=O | active: 3.16 µM
10 | CCOc1cc(S(=O)(=O)n2ccnc2C(C)C)ccc1Cl | inactive
11 | CCCCC(=O)Nc1ccc(C(=O)NNC(=O)CCc2ccccc2)cc1 | inactive
12 | CCN1C(=O)/C(=C/c2cn(-c3ccccc3)nc2-c2cccnc2)SC1=S | inactive
13 | Cn1c(=O)cc(SCC(=O)N2CCN(c3ccc(F)cc3)CC2)c2ccc(Cl)cc21 | inactive
14 | Cc1ccc(C)c(N2CCN(CCCNC(=O)Cn3ncc4c5ccccc5n(C)c4c3=O)CC2)c1 | inactive
15 | CN1CCc2c(cc(O)c(O)c2Cl)C(c2cccc(Cl)c2)C1 (configuration not stated) | inconclusive: 15.8 µM [inhibitor, single point]
16 | O=C(O)c1cc(=O)cc(C(=O)O)[nH]1 | inconclusive: 11.2 µM [inhibitor, full curve]
17 | CCCS(=O)(=O)c1ncc(Cl)c(C(=O)Nc2ccc(S(=O)(=O)Nc3ncccn3)cc2)n1 | inconclusive: 35.5 µM [inhibitor, single point]
18 | COc1ccc(-c2cc(C(=O)N(C)Cc3nc4ccccc4c(=O)[nH]3)c3ccccc3n2)cc1OC | inactive
19 | COC(=O)CCCc1nc2ccccc2s1 | inactive
20 | COC(=O)c1cc2occc2n1CC(=O)Nc1cc(OC)cc(OC)c1 | inconclusive: 39.8 µM [inhibitor, partial curve, poor fit]
21 | O=c1ccc2c(o1)/C(=C/C=C(Cl)Cl)CCC2 | inconclusive: 79.4 µM [inhibitor, partial curve, poor fit]

Records 11 through 12, quoted:
Row | Structure (SMILES) | Potency
11 | CCCCC(=O)Nc1ccc(C(=O)NNC(=O)CCc2ccccc2)cc1 | inactive
12 | CCN1C(=O)/C(=C/c2cn(-c3ccccc3)nc2-c2cccnc2)SC1=S | inactive

Next compounds follow:

Row | Structure (SMILES) | Potency
22 | Cc1ccc(N2C(=O)[C@@H]3[C@H](C2=O)C2c4ccccc4C=CN2[C@@H]3C(=O)c2ccco2)cc1 (some centres not stated) | inconclusive: 17.8 µM [inhibitor, full curve, poor fit]
23 | CCc1ccc(N2CC(C(=O)Nc3cccc(C(=O)NC4CC4)c3)CC2=O)cc1 (configuration not stated) | inconclusive: 56.2 µM [inhibitor, partial curve, poor fit]
24 | COC(=O)c1ccccc1C(=O)N(c1ccccc1)c1ccccc1 | inactive
25 | O=C(N/N=C/c1ccc[nH]1)c1cc2ccccc2cc1O | inconclusive: 79.4 µM [inhibitor, partial curve, poor fit]
26 | CC1CCN(CCCNC(=O)c2cc(Sc3ccc(F)cc3)nc3ccccc23)CC1 | inconclusive: 89.1 µM [inhibitor, single point]
27 | CCN(CC)CCNC(=O)c1ccc(NC(=O)c2ccc3c(c2)CCC3)cc1 | inconclusive: 70.8 µM [inhibitor, single point]
28 | CCc1ccc(CN(Cc2cn[nH]c2-c2ccc(OC)cc2)C(=O)Nc2ccc(C)c(F)c2)cc1 | inactive
29 | N=c1c(S(=O)(=O)c2ccccc2)cc2c(=O)n3ccccc3nc2n1Cc1ccco1 | inconclusive: 12.6 µM [inhibitor, full curve, poor fit]
30 | COc1cccc(NS(=O)(=O)c2ccc3[nH]cc(C(=O)N4CCCCCC4)c(=O)c3c2)c1 | inconclusive: 89.1 µM [inhibitor, single point]
31 | O=[N+]([O-])c1ccc(/C=N/Nc2ccnc3cc(Cl)ccc23)o1 | inconclusive: 35.5 µM [inhibitor, partial curve]
32 | CCc1ccc(NC(=O)CCc2ccc(C)o2)cc1 | inconclusive: 39.8 µM [inhibitor, partial curve, poor fit]
33 | C(=N\n1cnnc1SCc1ccccc1)/c1ccco1 | inconclusive: 17.8 µM [inhibitor, partial curve, poor fit]
34 | Cc1ccc(NC(=O)CNC(=O)c2ccc(C(C)(C)C)cc2)cc1S(=O)(=O)N1CCOCC1 | inconclusive: 63.1 µM [inhibitor, partial curve, poor fit]
35 | COc1ccc(Nc2nc(N)c(C(=O)c3ccc(F)cc3)s2)cc1 | inactive
36 | Cc1c(C(=O)NCC(c2ccco2)N2CCCC2)oc2ccc(Cl)cc12 (configuration not stated) | inconclusive: 56.2 µM [inhibitor, partial curve, poor fit]
37 | C=CCn1c(SCC(=O)c2cccs2)nc2sc(C)c(C)c2c1=O | inactive
38 | COc1ccccc1N(C)S(=O)(=O)c1ccc(C(=O)OCC(=O)N(C(C)C)C(C)C)cc1 | inconclusive: 79.4 µM [inhibitor, partial curve]
39 | C[n+]1ccnc2cc(Cl)ccc21 | inconclusive: 12.6 µM [inhibitor, full curve, poor fit]
40 | Cc1ccc(S(=O)(=O)N2CCOCC2)cc1C(=O)OCC(=O)c1ccc(Br)cc1 | inconclusive: 28.2 µM [inhibitor, full curve, poor fit]
41 | COc1cc(C(=S)N2CCOCC2)cc(OC)c1OC(=O)c1cc([N+](=O)[O-])c(C)c([N+](=O)[O-])c1 | inconclusive: 8.91 µM [inhibitor, full curve, poor fit]
42 | CCOC(=O)C1=C(C)N=c2s/c(=C/c3cccc([N+](=O)[O-])c3O)c(=O)n2C1c1ccc(OC)cc1OC (configuration not stated) | inconclusive: 14.1 µM [inhibitor, partial curve]
